PubChem BioAssay AID743454, Peter MacCallum Cancer Centre | 2014

Screen: 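Search for knock-downs that restore vorinostat killing in resistant colon cancer cells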 (primary screen)
System: human HCT116-VR colon cancer cells, selected for vorinostat resistance
Reagents: siRNA pool against human genes, 40 nM siRNA pool
Time to read-out: vorinostat for 24 h, read-out about 72 h after transfection
Challenge: vorinostat at 2.5 µM final
Measurement: 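Cell viability by CellTiter-Fluor and caspase 3/7 activity by luminescence, each scaled to mock wells per plate, duplicates averaged, then robust z-scored over all plates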
Scale: viability robust z-score: higher = more viable cells than screen typical; caspase robust z-score: higher = more caspase 3/7 activity than screen typical
Call rule: 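Hits are knock-downs in viability class RV1/RV2 or caspase class CA1/CA2, excluding ones that killed cells in the no-drug cell-count arm; hits then retested with single siRNAs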
The deposit covers about 18,000 reagents; below is a part drawn at random. 450 of all reagents (2.5%) were called active. 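Single biological run; no consistent viability z cut-off exists, so the class columns, not z-scores, define the calls.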 Entries without a mark were called inactive.

gene knocked down | PubChem SID | viability hit class | caspase hit class | viability robust z-score | caspase robust z-score
OBSCN | SID56479016 | no change | no change | -1.15 | -1
OBSCN | SID152156356 | no change | no change | -0.63 | 0.08
NRAP (nebulin related anchoring protein) | SID135621212 | no change | no change | -0.36 | -0.38
FBXO4 (F-box protein 4) | SID152148334 | no change | no change | -1.86 | 1.85
SGCZ (sarcoglycan zeta) | SID135622026 | no change | no change | -1.13 | 0.25
DDA1 (DET1 and DDB1 associated 1) | SID152153669 | no change | no change | 0.39 | 0.02
CD3G (CD3 gamma subunit of T-cell receptor complex) | SID134315370 | no change | no change | 0.26 | -0.8
TPTE (transmembrane phosphatase with tensin homology) | SID152148622 | no change | no change | 0.38 | -0.22
PPM1A (protein phosphatase, Mg2+/Mn2+ dependent 1A) | SID134314305 | no change | no change | 1.3 | 0.03
CFAP107 (cilia and flagella associated protein 107) | SID134320826 | no change | no change | -0.88 | -0.96
UGCG (UDP-glucose ceramide glucosyltransferase) | SID135621197 | no change | no change | 0.16 | -0.8
FCER1A (Fc epsilon receptor Ia) | SID134315982 | no change | no change | -1.77 | 1.92
PRKCQ (protein kinase C theta) | SID56478674 | no change | no change | 0.88 | 0.38
ARPP21 (cAMP regulated phosphoprotein 21) | SID152154337 | no change | no change | -1.29 | -0.22
DLGAP3 (DLG associated protein 3) | SID152152891 | no change | no change | 0.01 | 0
F2RL2 (coagulation factor II thrombin receptor like 2) | SID134310936 | no change | no change | 0.07 | -0.01
VIL1 (villin 1) | SID135622310 | no change | no change | 0.36 | 0.08
TNKS2 (tankyrase 2) | SID135620877 | no change | no change | 0.4 | -0.8
MAGEL2 (MAGE family member L2) | SID135622517 | no change | no change | 0.38 | 0.7
TLL2 (tolloid like 2) | SID134311469 | no change | no change | -0.57 | 1.58
LRRC42 (leucine rich repeat containing 42) | SID134322544 | no change | no change | -0.08 | 0.86
RALBP1 (ralA binding protein 1) | SID134314031 | no change | no change | 0.3 | -0.73
TMEM117 (transmembrane protein 117) | SID134318909 | no change | no change | 0.56 | -0.5
ZNF180 (zinc finger protein 180) | SID135621222 | no change | no change | -0.08 | 0.08
PRLHR (prolactin releasing hormone receptor) | SID135621015 | no change | no change | -0.1 | 0.84
CAST (calpastatin) | SID152152111 | no change | no change | 0.2 | -0.72
U2AF1 (U2 small nuclear RNA auxiliary factor 1) | SID135622301 | no change | no change | -2.61 | 0.31
SFTPD (surfactant protein D) | SID152156431 | no change | no change | -0.32 | 0.35
CDK11A (cyclin dependent kinase 11A) | SID152154784 | no change | no change | -2.82 | 1.31
PTPN6 (protein tyrosine phosphatase non-receptor type 6) | SID152153845 | no change | no change | -0.1 | 0.34
IGFL4 (IGF like family member 4) | SID134329821 | no change | no change | 1.09 | 0.8
KLF2 (KLF transcription factor 2) | SID134312055 | no change | no change | -0.71 | -0.15
DZIP3 (DAZ interacting zinc finger protein 3) | SID134312038 | no change | no change | -0.89 | 3.31

Only “viability hit class”, for 9 of the entries above:
TPTE (transmembrane phosphatase with tensin homology) [SID152148622]	no change
PPM1A (protein phosphatase, Mg2+/Mn2+ dependent 1A) [SID134314305]	no change
CFAP107 (cilia and flagella associated protein 107) [SID134320826]	no change
UGCG (UDP-glucose ceramide glucosyltransferase) [SID135621197]	no change
FCER1A (Fc epsilon receptor Ia) [SID134315982]	no change
PRKCQ (protein kinase C theta) [SID56478674]	no change
ARPP21 (cAMP regulated phosphoprotein 21) [SID152154337]	no change
DLGAP3 (DLG associated protein 3) [SID152152891]	no change
F2RL2 (coagulation factor II thrombin receptor like 2) [SID134310936]	no change

Further records follow.
gene knocked down | PubChem SID | viability hit class | caspase hit class | viability robust z-score | caspase robust z-score
FLJ46838 (retired record) | SID135625331 | no change | no change | 0.42 | 1.92
DPEP3 (dipeptidase 3) | SID134313220 | no change | no change | -1.04 | -1.12
OR4C6 (olfactory receptor family 4 subfamily C member 6) | SID152153561 | no change | no change | -0.44 | 1.11
ZNF564 (zinc finger protein 564) | SID152149090 | no change | no change | 0.11 | 1.19
LRTM2 (leucine rich repeat transmembrane protein 2) | SID135625556 | no change | no change | 0.12 | 0.42
BCL6 (BCL6 transcription repressor) | SID134315918 | no change | no change | 0.38 | -1.04
CHRNB1 (cholinergic receptor nicotinic beta 1 subunit) | SID134311561 | no change | no change | 0.76 | 0.18
ROBO2 (roundabout guidance receptor 2) | SID152151678 | no change | no change | 0.22 | 1.66
RETREG3 (reticulophagy regulator family member 3) | SID134322312 | no change | no change | -0.19 | -0.66
ZNF367 (zinc finger protein 367) | SID134320046 | no change | no change | -0.32 | -0.41
A3GALT2 (alpha 1,3-galactosyltransferase 2) | SID135624255 | no change | no change | 1.02 | 0.36
RPTOR (regulatory associated protein of MTOR complex 1) | SID152147350 | no change | no change | -0.18 | -0.54
VAC14 (VAC14 component of PIKFYVE complex) | SID135623004 | no change | no change | 0.77 | 0.98
SLC5A7 | SID134312641 | no change | no change | -0.9 | 0.88
SCUBE2 (signal peptide, CUB domain and EGF like domain containing 2) | SID134309985 | no change | no change | 2.38 | 0.28
C10orf55 (chromosome 10 putative open reading frame 55) | SID134329793 | no change | no change | -0.7 | -1.72
RXFP1 (relaxin family peptide receptor 1) | SID152155086 | no change | no change | -0.18 | 0.34
CNTLN (centlein) | SID152148351 | no change | no change | 0.76 | 0.46
SOX2 (SRY-box transcription factor 2) | SID134316096 | no change | no change | 0.8 | -0.9
STAMBP (STAM binding protein) | SID135622268 | no change | no change | -0.34 | 1.86
GFPT2 (glutamine--fructose-6-phosphate transaminase 2) | SID135621940 | no change | no change | 1.38 | -0.12
UBQLN1 (ubiquilin 1) | SID134317190 | no change | no change | -1.03 | -0.66
BARX2 (BARX homeobox 2) | SID152147784 | no change | no change | -0.7 | 1.46
TEDC1 (tubulin epsilon and delta complex 1) | SID135623490 | no change | no change | 0.34 | 0.18
